Reference: patent publication US11389414B2, “Methods for treating atherosclerosis with gamma-ketoaldehyde scavengers” (Vanderbilt University, priority 2017, dated 2022)
Entries after “also recorded” stand apart in the source; their conditions may differ.

Test: Body weight and plasma total cholesterol and triglyceride levels of treated mice
Assay type: in vivo, mouse
Settings: comparison of the 3 groups (vehicle, 4-HOBA, 2-HOBA), western diet 16 weeks
Protocol: Mice: Ldlr^−/− and WT on C57BL/6 background mice were obtained from the Jackson Laboratory. Animal protocols were performed according to the regulations of Vanderbilt University's Institutional Animal Care and Usage Committee. Mice were maintained on chow or a Western-type diet containing 21% milk fat and 0.15% cholesterol (Teklad). Eight week old, female mice were pretreated mice with vehicle alone (Water) or containing either 1 g/L of 4-HOBA or 1 g/L of 2-HOBA. After two weeks, the mice continued to receive treatment and were administered a Western diet for 16 weeks to induce hypercholesterolemia and atherosclerosis.

Compound | plasma total cholesterol levels | plasma triglyceride levels
NCc1ccccc1O [2-HOBA, 2-hydroxybenzylamine] | not significantly different; also recorded: did not impact | not significantly different
NCc1ccc(O)cc1 [4-HOBA, 4-hydroxybenzylamine, reference compound] | not significantly different | not significantly different
